Measurements reported in PubChem BioAssay AID743121 (NCATS, 2013).
Screen: 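Genes whose silencing strengthens cell killing by camptothecin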 (primary screen). Cell system: MDA-MB-231 cells, a human breast cancer line. Reagent: single siRNA against human genes, 20 nM siRNA (0.8 pmol per well). Time to read-out: 120 h (drug added 48 h after transfection, read 72 h later). Challenge: camptothecin 20 nM (about EC30) for 72 h; vehicle 0.1% DMSO in parallel plates. Measurement: 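CellTiter-Glo ATP signal, scaled to control siRNA as percent viability; sensitisation given as log2 of untreated divided by camptothecin-treated viability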. Direction: log2 vehicle/camptothecin viability: higher = stronger sensitisation to camptothecin; viability with camptothecin and viability without drug: higher = more viable cells. Call rule: 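Each gene scored by redundant siRNA activity (RSA) over its individual siRNA ratios; a gene is called active at p < 0.001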.
In all, the deposit lists about 26,000 reagents; below is an unselected part. 167 of all reagents (0.63%) were called active. 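Calls are per gene from RSA p-values that are not deposited; an individual active-marked siRNA can sensitise only weakly.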 Unmarked entries are inactive. Reagents against one gene are numbered here. Reagent sequences are not shown.

no.	Target gene	reagent no.	log2 vehicle/camptothecin viability	viability with camptothecin (% of control)	viability without drug (% of control)
1	ASS1 (argininosuccinate synthase 1)	1	0.242	67.6	80
2	ASS1 (argininosuccinate synthase 1)	2	0.0656	72.5	75.8
3	ASS1 (argininosuccinate synthase 1)	3	-0.682	56.8	35.4
4	ASS1 (argininosuccinate synthase 1)	4	-0.325	85.4	68.2
5	ZC3HC1 (zinc finger C3HC-type containing 1)	1	0.332 (active)	33.2	41.8
6	ZC3HC1 (zinc finger C3HC-type containing 1)	2	1.7 (active)	4.2	13.7
7	ZC3HC1 (zinc finger C3HC-type containing 1)	3	0.129 (active)	42.6	46.6
8	ZC3HC1 (zinc finger C3HC-type containing 1)	4	0.651 (active)	53.1	83.4
9	AGBL4 (AGBL carboxypeptidase 4)	1	-0.218	75.7	65.1
10	AGBL4 (AGBL carboxypeptidase 4)	2	-0.0782	94.5	89.6
11	AGBL4 (AGBL carboxypeptidase 4)	3	-0.588	38.1	25.3
12	AGBL4 (AGBL carboxypeptidase 4)	4	-0.324	78.1	62.4

In a second layout: entries from further up
| Target gene | reagent no. | log2 vehicle/camptothecin viability | viability with camptothecin (% of control) | viability without drug (% of control) |
| --- | --- | --- | --- | --- |
| AGBL4 (AGBL carboxypeptidase 4) | 1 | -0.218 | 75.7 | 65.1 |
| AGBL4 (AGBL carboxypeptidase 4) | 2 | -0.0782 | 94.5 | 89.6 |
| AGBL4 (AGBL carboxypeptidase 4) | 3 | -0.588 | 38.1 | 25.3 |

The results go on.
no.	Target gene	reagent no.	log2 vehicle/camptothecin viability	viability with camptothecin (% of control)	viability without drug (% of control)
13	PREP (prolyl endopeptidase)	1	0.757	27.9	47.1
14	PREP (prolyl endopeptidase)	2	-0.0836	109	103
15	PREP (prolyl endopeptidase)	3	-0.314	91.8	73.8
16	PREP (prolyl endopeptidase)	4	0.146	48.6	53.8
17	VIPR2 (vasoactive intestinal peptide receptor 2)	1	-0.0532	47.9	46.2
18	VIPR2 (vasoactive intestinal peptide receptor 2)	2	-0.0786	57.1	54.1
19	VIPR2 (vasoactive intestinal peptide receptor 2)	3	-0.0973	87.1	81.4
20	VIPR2 (vasoactive intestinal peptide receptor 2)	4	-0.0761	63.8	60.5
21	ZFAND4 (zinc finger AN1-type containing 4)	1	-0.527	86.7	60.1
22	ZFAND4 (zinc finger AN1-type containing 4)	2	0.0852	91.8	97.4
23	ZFAND4 (zinc finger AN1-type containing 4)	3	0.0909	62.3	66.4
24	CACNA1H (calcium voltage-gated channel subunit alpha1 H)	1	0.215	2.98	3.46
25	CACNA1H (calcium voltage-gated channel subunit alpha1 H)	2	-0.0986	56.8	53.1
26	CACNA1H (calcium voltage-gated channel subunit alpha1 H)	3	0.0777	29.3	30.9
27	CACNA1H (calcium voltage-gated channel subunit alpha1 H)	4	0.271	56.5	68.2
28	HECW2	1	-0.538	89.6	61.7
29	HECW2	2	0.316	48.2	60
30	HECW2	3	-0.0463	97.2	94.1
